Source: the supplement of paper PMC11060735
“And” between values parts separate entries of the source, which are not always exact repeats. Equal values may be shown once. Where a name gives a salt, the structure may show the parent alone. ± gives the standard deviation of the averaged measurements. The full ranking holds about 1,800 compounds; the median of “GFP- (p16Ink4a-) cell count relative to negative-control wells” is about 0.99, and the lowest 2% start at about 0.5. Some of the results follow.

These molecules were tested on mouse p16Ink4a+/- lung fibroblasts (INKBRITE, bleomycin-injured) (assay: GFP- (p16Ink4a-) cell count relative to negative-control wells (fold of vehicle); higher = more p16Ink4a- cells surviving). Settings: 1 µM; 3 days.

Compared with `CCCCC(=O)N(Cc1ccc(-c2ccccc2-c2nn[nH]n2)cc1)[C@H](C(=O)O)C(C)C` [Valsartan], `O=C(Nc1ccc2c(=O)cc(-c3nn[nH]n3)oc2c1)c1ccc(OCCCCc2ccccc2)cc1` [Pranlukast] is lower in GFP-: 1.02 for the first, 0.993 for the second.

Compared with `O=C(c1ccc(C(=O)N2CCC(N3CCCC3)CC2)c(Nc2ccccc2)c1)N1CCC(N2CCCC2)CC1`, `O=C(NCCCNc1nc(Nc2cccc(NC(=O)N3CCCC3)c2)ncc1I)c1cccs1` is lower in GFP-: 0.967 ± 0.073 for the first, 0.707 for the second.

First: Nc1ncn([C@H]2C[C@H](O)[C@@H](CO)O2)c(=O)n1 [Decitabine]
Second: Nc1nc(O)c2ncn([C@@H]3O[C@H](CO)[C@@H](O)[C@H]3O)c2n1 [Guanosine]
The GFP- of the first is lower: 0.814 ± 0.15 for the first, 1.01 for the second.

Going from `CN(C)C(=O)COC(=O)Cc1ccc(OC(=O)c2ccc(NC(=N)N)cc2)cc1` [Camostat] to `CN(CCOc1ccc(NS(C)(=O)=O)cc1)CCc1ccc(NS(C)(=O)=O)cc1` [Dofetilide], the GFP- falls from 1.14 to 1.07.

First: CC(C)CC(N)=O [Isovaleramide]
Second: C[C@H](Cn1cnc2c(N)ncnc21)OCP(=O)(O)O [Tenofovir]
The GFP- of the first is lower: 0.963 for the first, 1.2 for the second.

Compared with `Cc1[nH]c2ccccc2c1CCNCc1ccc(/C=C/C(=O)NO)cc1` [Panobinostat], `COc1ccc(/C=C/C(=O)Nc2ccccc2C(=O)O)cc1OC` [Tranilast] is higher in GFP-: 0.50294 ± 0.0002 for the first, 0.875 for the second.

`COCCCOc1cc(C[C@@H](C[C@H](N)[C@@H](O)C[C@H](C(=O)NCC(C)(C)C(N)=O)C(C)C)C(C)C)ccc1OC` [Aliskiren] and `C#Cc1cccc(Nc2ncnc3cc(OC)c(OCCCCCCC(=O)NO)cc23)c1` are within error of each other in GFP-: 1.09 for the first, 1.01 ± 0.091 for the second.

Compared with `CC[C@H](C)[C@H]1O[C@]2(CC[C@@H]1C)C[C@@H]1C[C@@H](C/C=C(\C)[C@@H](O[C@H]3C[C@H](OC)[C@@H](O[C@H]4C[C@H](OC)[C@@H](O)[C@H](C)O4)[C@H](C)O3)[C@@H](C)/C=C/C=C3\CO[C@@H]4[C@H](O)C(C)=C[C@@H](C(=O)O1)[C@]34O)O2` [Ivermectin], `CO[C@H]1/C=C/O[C@@]2(C)Oc3c(C)c(O)c4c(O)c(c5c(nc6cc(C)ccn65)c4c3C2=O)NC(=O)/C(C)=C\C=C\[C@H](C)[C@H](O)[C@@H](C)[C@@H](O)[C@@H](C)[C@H](OC(C)=O)[C@@H]1C` [Rifaximin] is lower in GFP-: 1.2 for the first, 0.919 for the second.

`CC(NC(=O)c1ccccc1/N=C/c1c(O)ccc2ccccc12)c1ccccc1` (configuration not stated) [Sirtinol] and `c1ccc(CNc2nc(NCc3ccccc3)c3ccccc3n2)cc1` are within error of each other in GFP-: 1.09 ± 0.21 for the first, 0.94 for the second.

Going from `O=c1n(CCCN2CCN(c3cccc(Cl)c3)CC2)nc2ccccn12` [Trazodone] to `OCCOCCN1CCN(C2=Nc3ccccc3Sc3ccccc32)CC1` [Quetiapine], the GFP- falls from 0.97 to 0.855.

`Nc1cc(F)ccc1NC(=O)/C=C/c1cnn(C/C=C/c2ccccc2)c1` and `O=C(CCCCCCNC(=O)c1cnc(N(c2ccccc2)c2ccccc2)nc1)NO` [Rocilinostat] are within error of each other in GFP-: 0.781 ± 0.051 for the first, 0.75 ± 0.08 for the second.

First: COc1cc2c(Nc3ccc(NC(=O)c4ccccc4)cc3)ncnc2cc1OCCCN1CCOCC1
Second: COc1cc2c(Oc3ccc(NC(=O)C4(C(=O)Nc5ccc(F)cc5)CC4)cc3F)ccnc2cc1OCCCN1CCOCC1 [Foretinib]
The GFP- of the first is higher: 0.93618 ± 0.00011 for the first, 0.62 for the second.

First: CN1CCN(c2c(F)cc3c(=O)c(C(=O)O)cn4c3c2OCN4C)CC1 [Marbofloxacin]
Second: Cc1cc([C@@H](C)Nc2ccccc2C(=O)O)c2nc(N3CCOCC3)cc(=O)n2c1
The GFP- of the first is higher: 1.07 for the first, 0.724 for the second.

Compared with `O=C(Nc1ccncc1)c1cc([N+](=O)[O-])ccc1Cl`, `NS(=O)(=O)c1cc(C(=O)O)c(NCc2ccco2)cc1Cl` [Furosemide] is lower in GFP-: 1.1 for the first, 0.93 for the second.

Compared with `NS(=O)(=O)c1cc2c(cc1Cl)NC=NS2(=O)=O` [Chlorothiazide], `Cc1ccccc1N1C(=O)c2cc(S(N)(=O)=O)c(Cl)cc2NC1C` (configuration not stated) [Metolazone] is lower in GFP-: 0.98 for the first, 0.905 for the second.

Going from `CNS(=O)(=O)Cc1ccc2[nH]cc(CCN(C)C)c2c1` [Sumatriptan] to `COc1ccc2cccc(CCNC(C)=O)c2c1` [Agomelatine], the GFP- falls from 1.12 to 0.973.

First: Cn1cc(-c2[nH]c3cc(NC(=O)[C@H](N)C4CCCCC4)cc4c3c2C=NNC4=O)cn1
Second: Cn1cc(-c2cnn3c(N)c(Br)c([C@@H]4CCCNC4)nc23)cn1
The GFP- of the first is higher: 1.06 for the first, 0.988 for the second.

Compared with `CCn1cc(-c2ccnc3[nH]c(-c4cccc(CN(C)C)c4)cc23)c(-c2ccc(NC(=O)N(C)C)cc2)n1`, `COc1ccc2cc(-c3[nH]c(-c4ccc(S(C)=O)cc4)nc3-c3ccncc3)ccc2c1` (configuration not stated) [Tie2 kinase inhibitor] is higher in GFP-: 0.658 ± 0.17 for the first, 1.05 for the second.

Going from `CC(C)(C)c1cnc(CSc2cnc(NC(=O)C3CCNCC3)s2)o1` to `CN(C)C(=O)c1cc2cnc(Nc3ccc(N4CCNCC4)cn3)nc2n1C1CCCC1` [Ribociclib], the GFP- falls from 1.05 to 0.995.

Compared with `COc1cccc2c1C(=O)c1c(O)c3c(c(O)c1C2=O)C[C@@](O)(C(C)=O)C[C@@H]3O[C@H]1C[C@H](N)[C@H](O)[C@H](C)O1` [Daunorubicin], `COc1cc([C@@H]2c3cc4c(cc3[C@@H](O[C@@H]3O[C@@H]5CO[C@@H](c6cccs6)O[C@H]5[C@H](O)[C@H]3O)[C@H]3COC(=O)[C@H]23)OCO4)cc(OC)c1O` [Teniposide] is higher in GFP-: 0.754 for the first, 0.832 for the second.

First: CC(C)NC[C@@H](C(=O)N1CCN(c2ncnc3c2[C@H](C)C[C@H]3O)CC1)c1ccc(Cl)cc1
Second: COc1cc2c(N3CCN(C(=O)Nc4ccc(OC(C)C)cc4)CC3)ncnc2cc1OCCCN1CCCCC1
The GFP- of the first is lower: 0.865 for the first, 0.944 for the second.

Compared with `Cc1ncc([N+](=O)[O-])n1CC(O)CCl` (configuration not stated) [Ornidazole], `OC[C@@H](O)CN1CCN(c2ccccc2)CC1` [Levodropropizine] is lower in GFP-: 1.14 for the first, 1.05 for the second.

First: Cc1cc(C#N)cc(C)c1Oc1nc(Nc2ccc(C#N)cc2)nc(N)c1Br [Etravirine]
Second: CCn1c2ccccc2c2cc(Nc3ccnc(NCCCN4CCOCC4)n3)ccc21
The GFP- of the first is higher: 1.15 for the first, 0.951 for the second.

`CCOc1cc(N)c(Cl)cc1C(=O)NCC1CN(Cc2ccc(F)cc2)CCO1` (configuration not stated) [Mosapride, Mosapride Citrate] and `O=C(CS(=O)Cc1ccco1)NC/C=C\COc1cc(CN2CCCCC2)ccn1` (configuration not stated) [Lafutidine] are the same in GFP-: 1.11 for the first, 1.11 for the second.

First: COc1ccc2c(c1)c(CC(=O)N1CCOCC1)c(C)n2C(=O)c1ccc(Cl)cc1
Second: COc1ccc(C2=NC(c3ccc(Cl)cc3)C(c3ccc(Cl)cc3)N2C(=O)N2CCNC(=O)C2)c(OC(C)C)c1 (configuration not stated) [Nutlin-3]
The GFP- of the first is higher: 1.15 for the first, 0.835 for the second.

Compared with `COc1nc(C)cnc1NS(=O)(=O)c1cccnc1-c1ccc(-c2nnco2)cc1` [Zibotentan], `CNC(=O)c1ccc(-c2cnc3ncc(Cc4ccc5ncccc5c4)n3n2)cc1F` is lower in GFP-: 1.19 for the first, 0.845 for the second.

Going from `COc1cc(N2CCC(N)CC2)ccc1Nc1ncc(Cl)c(-c2c[nH]c3ccccc23)n1` to `CC[C@@H]1C(=O)N(C)c2cnc(Nc3ccc(C(=O)NC4CCN(C)CC4)cc3OC)nc2N1C1CCCC1`, the GFP- falls from 0.795 to 0.766.

First: COc1cc(Cc2cnc(N)nc2N)cc(OC)c1OC [Trimethoprim]
Second: COc1cc2nc(N3CCN(C(=O)C4CCCO4)CC3)nc(N)c2cc1OC (configuration not stated) [Terazosin]
The GFP- of the first is higher: 1.04 for the first, 0.942 for the second.

Compared with `COc1ccccc1OCCNCC(O)COc1cccc2[nH]c3ccccc3c12` (configuration not stated) [Carvedilol, Carvedilol Phosphate], `O=c1cc(-c2ccccc2)oc2cc(O)c(O)c(O)c12` [Baicalein] is higher in GFP-: 0.96 for the first, 1.03 for the second.

Compared with `O=C[C@H](O)[C@@H](O)[C@H](O)CO` [Xylose], `C=C1CC[C@@H]2[C@](C)(CO)[C@H](O)CC[C@@]2(C)[C@@H]1C/C=C1/C(=O)OCC1O` (some centres not stated) [Andrographolide] is higher in GFP-: 0.97 for the first, 1.05 for the second.

Compared with `CC[C@@]1(O)C(=O)OCc2c1cc1n(c2=O)Cc2cc3c(CN(C)C)c(O)ccc3nc2-1` [Topotecan, Topotecan Hydrochloride], `COc1ccc2cc3[n+](cc2c1OC)CCc1cc2c(cc1-3)OCO2` [Berberine] is higher in GFP-: 0.647 for the first, 0.956 for the second.

Going from `Cn1ccnc1S` [Methimazole] to `CCC1(c2ccccc2)C(=O)NCNC1=O` [Primidone], the GFP- rises from 1.01 to 1.04.

Going from `COc1ccc(C2CNC(=O)C2)cc1OC1CCCC1` (configuration not stated) [Rolipram] to `COc1cc(OC)c(C(=O)CCCN2CCCC2)c(OC)c1` [Buflomedil, Buflomedil Hydrochloride], the GFP- rises from 1.01 to 1.18.

First: CC(=O)S[C@@H]1CC2=CC(=O)CC[C@]2(C)[C@H]2CC[C@@]3(C)[C@@H](CC[C@@]34CCC(=O)O4)[C@H]12 [Spironolactone]
Second: CC(=O)O[C@]1(C(C)=O)CC[C@H]2[C@@H]3C=C(C)C4=CC(=O)CC[C@]4(C)[C@H]3CC[C@@]21C [Megestrol Acetate]
The GFP- of the first is lower: 1.07 for the first, 1.09 for the second.

First: CS(=O)(=O)OCCCCOS(C)(=O)=O [Busulfan]
Second: CCCCCCCCCCC[C@@H](C[C@@H]1OC(=O)[C@H]1CCCCCC)OC(=O)[C@H](CC(C)C)NC=O [Orlistat]
The GFP- of the first is lower: 0.83 for the first, 0.994 for the second.

Going from `CC(C)n1nc(-c2ccc3oc(N)nc3c2)c2c(N)ncnc21` to `O=C1CN2Cc3c(ccc(Cl)c3Cl)N=C2N1` [Anagrelide], the GFP- rises from 0.552 to 1.06.

`CC1(C)CCC(CN2CCN(c3ccc(C(=O)NS(=O)(=O)c4ccc(NCC5CCOCC5)c([N+](=O)[O-])c4)c(Oc4cnc5[nH]ccc5c4)c3)CC2)=C(c2ccc(Cl)cc2)C1` [Venetoclax] was tested, and the GFP- was 0.921.

`CN(C)CC(c1ccc(O)cc1)C1(O)CCCCC1` (configuration not stated) [Desvenlafaxine] was tested, and the GFP- was 0.752 and 0.898.
`CN(c1ncccc1CNc1nc(Nc2ccc3c(c2)CC(=O)N3)ncc1C(F)(F)F)S(C)(=O)=O` was tested, and the GFP- was 0.683 and 0.793 and 0.91.
With `COc1ccc2[nH]c(S(=O)Cc3ncc(C)c(OC)c3C)nc2c1` (configuration not stated) [Esomeprazole; Omeprazole] the GFP- was 1.03 and 1.31.
With `Cc1ccc(Nc2nccc(N(C)c3ccc4c(C)n(C)nc4c3)n2)cc1S(N)(=O)=O` [Pazopanib] the GFP- was 0.999 and 1.07.
